Laboratory results as given in patent US20100130736A1, “METHODS OF CREATING AN INDEX” (priority 2008, published 2010).
For at least one compound, name, drawing or mass did not settle the structure. Where no end group is shown, it is not given here.

Tested on: A549 cells
Test: Epic DMR agonist mode (primary profile, target panning) in A549 cells
Assay type: cell-based, human
Details: each ligand at 10 μM, FIGS. 3A and 3B
Source text: Epic® wavelength interrogation system (Corning Inc., Corning, N.Y.) was used for whole cell sensing. This system consists of a temperature-control unit, an optical detection unit, and an on-board liquid handling unit with robotics. The detection unit is centered on integrated fiber optics, and enables kinetic measures of cellular responses with a time interval of ±15 sec.
For biosensor cellular assays, molecule solutions were made by diluting the stored concentrated solutions with the HBSS (1× Hanks balanced salt solution, plus 20 mM Hepes, pH 7.1), and transferred into a 384 well polypropylene molecule storage plate to prepare a molecule source plate. Both molecule and marker source plates were made separately when a two-step assay was performed. In parallel, the cells were washed twice with the HBSS and maintained in 30 μl of the HBSS to prepare a cell assay plate. Both the cell assay plate and the molecule and marker source plate(s) were then incubated in the hotel of the reader system. After ˜1 hr of incubation the baseline wavelengths of all biosensors in the cell assay microplate were recorded and normalized to zero. […]
A DMR index was generated for four ligand molecules. […] Next, one or more specific DMR parameters were chosen as a readout for plotting the DMR index of the molecule. […]

## RPPGFSPFR [bradykinin]
  ligand-induced DMR signal (GPCR ligand panel): robust DMR signals
